The values that follow come from PMC5440813.

The chains behind the UniProt entries cited, without tags or fusion partners. Where a name states a change or a piece, a line headed by the entry shows the natural chain unless it says otherwise.
UniProt Q9LKA3: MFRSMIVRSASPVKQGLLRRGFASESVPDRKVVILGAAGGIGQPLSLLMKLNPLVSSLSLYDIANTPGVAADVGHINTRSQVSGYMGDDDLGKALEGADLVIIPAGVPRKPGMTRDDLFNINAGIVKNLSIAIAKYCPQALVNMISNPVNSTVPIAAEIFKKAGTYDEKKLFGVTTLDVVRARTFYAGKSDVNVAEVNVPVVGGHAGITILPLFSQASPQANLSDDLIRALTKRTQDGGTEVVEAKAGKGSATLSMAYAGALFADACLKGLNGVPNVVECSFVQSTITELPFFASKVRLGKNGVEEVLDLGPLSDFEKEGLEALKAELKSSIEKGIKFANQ
UniProt Q9ZP06: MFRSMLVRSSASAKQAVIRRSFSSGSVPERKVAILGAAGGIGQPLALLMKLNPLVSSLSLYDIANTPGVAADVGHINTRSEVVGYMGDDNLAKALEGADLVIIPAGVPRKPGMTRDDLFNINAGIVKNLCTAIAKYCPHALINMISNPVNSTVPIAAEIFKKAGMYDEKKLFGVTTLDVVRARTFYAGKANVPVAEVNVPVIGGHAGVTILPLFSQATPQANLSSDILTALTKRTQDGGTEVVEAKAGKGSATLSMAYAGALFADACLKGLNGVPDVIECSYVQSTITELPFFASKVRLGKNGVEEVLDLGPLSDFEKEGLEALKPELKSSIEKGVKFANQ
UniProt Q8LPJ5: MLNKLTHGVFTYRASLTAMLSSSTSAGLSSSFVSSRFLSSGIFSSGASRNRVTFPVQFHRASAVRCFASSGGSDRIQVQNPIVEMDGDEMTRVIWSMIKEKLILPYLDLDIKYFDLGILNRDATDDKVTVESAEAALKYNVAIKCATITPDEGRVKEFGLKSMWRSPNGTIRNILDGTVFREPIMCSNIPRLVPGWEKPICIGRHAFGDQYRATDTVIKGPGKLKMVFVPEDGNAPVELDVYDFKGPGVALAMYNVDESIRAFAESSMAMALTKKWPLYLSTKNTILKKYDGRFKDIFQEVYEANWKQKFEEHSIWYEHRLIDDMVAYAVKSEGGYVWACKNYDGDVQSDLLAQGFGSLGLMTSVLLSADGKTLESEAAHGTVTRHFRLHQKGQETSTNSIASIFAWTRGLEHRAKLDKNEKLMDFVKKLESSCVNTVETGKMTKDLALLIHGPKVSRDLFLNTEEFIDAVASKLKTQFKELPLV

Holding throughout (assay): affinity purification with mass spectrometry + split reporter + two-hybrid; compromise score that integrates the AP-MS, split-LUC and Y2H data of the 38 x 38 screen (STATIS-like); interaction: compromise score above the threshold of about 0.6
For assay [1], the target named is T1, isocitrate dehydrogenase (IDH) subunit IDH2 (Arabidopsis thaliana) (UniProt P93032).
T1 sequence: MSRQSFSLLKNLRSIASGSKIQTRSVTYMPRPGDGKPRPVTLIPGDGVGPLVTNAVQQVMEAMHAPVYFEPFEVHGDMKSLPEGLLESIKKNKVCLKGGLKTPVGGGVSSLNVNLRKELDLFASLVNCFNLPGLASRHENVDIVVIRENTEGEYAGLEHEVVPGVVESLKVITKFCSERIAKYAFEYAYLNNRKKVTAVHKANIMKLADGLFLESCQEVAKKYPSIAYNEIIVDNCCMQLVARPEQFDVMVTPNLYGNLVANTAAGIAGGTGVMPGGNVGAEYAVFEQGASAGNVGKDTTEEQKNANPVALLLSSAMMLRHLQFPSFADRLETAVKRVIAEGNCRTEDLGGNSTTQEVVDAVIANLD

The target in assay [2] is T2, isocitrate dehydrogenase (IDH) subunit IDH6 (Arabidopsis thaliana) (UniProt Q8LG77).
T2 sequence: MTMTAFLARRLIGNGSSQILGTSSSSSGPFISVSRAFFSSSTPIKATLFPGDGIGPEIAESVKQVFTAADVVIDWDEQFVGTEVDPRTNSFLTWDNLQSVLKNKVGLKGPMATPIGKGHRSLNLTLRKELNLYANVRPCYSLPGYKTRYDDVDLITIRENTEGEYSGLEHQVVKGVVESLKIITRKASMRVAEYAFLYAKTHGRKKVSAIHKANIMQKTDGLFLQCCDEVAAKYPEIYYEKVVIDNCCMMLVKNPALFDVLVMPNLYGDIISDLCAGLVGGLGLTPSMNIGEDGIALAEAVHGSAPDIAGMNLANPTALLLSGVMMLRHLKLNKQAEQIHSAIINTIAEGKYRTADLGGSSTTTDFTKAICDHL

Assay [3] concerns the target T3, citrate synthase (CSY) 4 (Arabidopsis thaliana) (UniProt P20115).
T3 sequence: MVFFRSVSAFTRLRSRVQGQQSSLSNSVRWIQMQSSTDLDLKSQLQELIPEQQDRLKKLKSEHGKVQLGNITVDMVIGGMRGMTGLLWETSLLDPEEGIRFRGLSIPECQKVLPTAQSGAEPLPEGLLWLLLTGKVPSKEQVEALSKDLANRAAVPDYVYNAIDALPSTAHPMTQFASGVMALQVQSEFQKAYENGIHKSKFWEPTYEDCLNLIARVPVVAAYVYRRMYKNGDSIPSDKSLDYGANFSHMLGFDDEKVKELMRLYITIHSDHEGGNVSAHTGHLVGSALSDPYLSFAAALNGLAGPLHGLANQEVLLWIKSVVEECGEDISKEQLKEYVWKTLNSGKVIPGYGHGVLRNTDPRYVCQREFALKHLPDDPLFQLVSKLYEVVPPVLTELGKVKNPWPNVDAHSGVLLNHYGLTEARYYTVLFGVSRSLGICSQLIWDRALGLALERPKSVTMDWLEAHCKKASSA

The target of assay [4] is malate dehydrogenase (MDH) 2 (Arabidopsis thaliana) (UniProt Q9LKA3).
The target of assay [5] is malate dehydrogenase (MDH) 1 (Arabidopsis thaliana) (UniProt Q9ZP06).
In assay [6] the target is T4, isocitrate dehydrogenase (IDH) subunit IDH1 (Arabidopsis thaliana) (UniProt Q8LFC0).
T4 sequence: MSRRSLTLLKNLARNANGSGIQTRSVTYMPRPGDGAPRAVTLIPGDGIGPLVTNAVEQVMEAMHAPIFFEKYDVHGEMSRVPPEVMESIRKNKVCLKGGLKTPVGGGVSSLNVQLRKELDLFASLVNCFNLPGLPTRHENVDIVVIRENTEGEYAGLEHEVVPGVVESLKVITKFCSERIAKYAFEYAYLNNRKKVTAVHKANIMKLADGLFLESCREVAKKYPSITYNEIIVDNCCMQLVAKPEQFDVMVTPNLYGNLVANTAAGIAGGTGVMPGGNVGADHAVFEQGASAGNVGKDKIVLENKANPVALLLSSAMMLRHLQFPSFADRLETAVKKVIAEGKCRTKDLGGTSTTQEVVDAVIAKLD

Assay [7] addresses oxoglutarate dehydrogenase complex (ODC) subunit ODC2-2 (Arabidopsis thaliana).
The target in assay [8] is oxoglutarate dehydrogenase complex (ODC) subunit ODC2-1 (Arabidopsis thaliana).

Results are given in words; binding and its absence hold for the method and conditions named. In cells and extracts the contact can be indirect. Here binding means that the protein was enriched with, or labelled near, the bait; the list need not be complete.

On to “malate dehydrogenase (MDH) 2 (from UniProt Q9LKA3) (enzyme)”, for which the binding entry in assay [1], in assay [2] and in assay [3] was “binds” in each case.

Regarding “malate dehydrogenase (MDH) 1 (from UniProt Q9ZP06) (enzyme)”, the binding result in assay [3] was “binds”.

Consider “NADP+-dependent isocitrate dehydrogenase (ICDH) (from UniProt Q8LPJ5) (enzyme)”, for which the binding entry in assay [4] and in assay [5] was “binds” throughout.

B1: aconitase 3 (ACO3) (enzyme, UniProt Q9SIB9 1-990)
chain: MYLTASSSASSSIIRAASSRSSSLFSFRSVLSPSVSSTSPSSLLARRSFGTISPAFRRWSHSFHSKPSPFRFTSQIRAVSPVLDRLQRTFSSMASEHPFKGIFTTLPKPGGGEFGKFYSLPALNDPRVDKLPYSIRILLESAIRNCDNFQVTKEDVEKIIDWEKTSPKQVEIPFKPARVLLQDFTGVPAVVDLACMRDAMNKLGSDSNKINPLVPVDLVIDHSVQVDVARSENAVQANMELEFQRNKERFAFLKWGSTAFQNMLVVPPGSGIVHQVNLEYLGRVVFNTKGLLYPDSVVGTDSHTTMIDGLGVAGWGVGGIEAEATMLGQPMSMVLPGVVGFKLAGKMRNGVTATDLVLTVTQMLRKHGVVGKFVEFYGNGMSGLSLADRATIANMSPEYGATMGFFPVDHVTLQYLKLTGRSDETVAMIEAYLRANNMFVDYNEPQQDRVYSSYLELNLDDVEPCISGPKRPHDRVTLKEMKADWHSCLDSKVGFKGFAIPKEAQEKVVNFSFDGQPAELKHGSVVIAAITSCTNTSNPSVMLGAGLVAKKACDLGLQVKPWIKTSLAPGSGVVTKYLLKSGLQEYLNEQGFNIVGYGCTTCIGNSGEINESVGAAITENDIVAAAVLSGNRNFEGRVHPLTRANYLASPPLVVAYALAGTVNIDFETEPIGKGKNGKDVFLRDIWPTTEEIAEVVQSSVLPDMFRATYESITKGNPMWNKLSVPENTLYSWDPNSTYIHEPPYFKDMTMDPPGPHNVKDAYCLLNFGDSITTDHISPAGNIQKDSPAAKFLMERGVDRKDFNSYGSRRGNDEIMARGTFANIRIVNKLMNGEVGPKTVHIPSGEKLSVFDAAMRYKSSGEDTIILAGAEYGSGSSRDWAAKGPMLQGVKAVIAKSFERIHRSNLVGMGIIPLCFKSGEDADTLGLTGHERYTIHLPTDISEIRPGQDVTVTTDNGKSFTCTVRFDTEVELAYFNHGGILPYVIRNLSKQ
In the case of B1, the binding entry in assay [1], in assay [2] and in assay [6] was “binds” in each case.

B2: isocitrate dehydrogenase (IDH) subunit IDH5 (enzyme, UniProt Q945K7 1-374)
chain: MTMAANLARRLIGNRSTQILGAVNSSSGAASSVARAFCSSTTPITATLFPGDGIGPEIAESVKKVFTTAGVPIEWEEHYVGTEIDPRTQSFLTWESLESVRRNKVGLKGPMATPIGKGHRSLNLTLRKELNLYANVRPCYSLPGYKTRYDDVDLITIRENTEGEYSGLEHQVVRGVVESLKIITRQASLRVAEYAFLYAKTHGRERVSAIHKANIMQKTDGLFLKCCREVAEKYPEITYEEVVIDNCCMMLVKNPALFDVLVMPNLYGDIISDLCAGLVGGLGLTPSCNIGEDGVALAEAVHGSAPDIAGKNLANPTALLLSGVMMLRHLKFNEQAEQIHSAIINTIAEGKYRTADLGGSSTTTEFTKAICDHL
With B2, the binding result in assay [7] is reported as “binds”.

B3: isocitrate dehydrogenase (IDH) subunit IDH6 (enzyme, UniProt Q8LG77 1-374)
chain: T2 sequence
In the case of B3, the binding entry in assay [7] and in assay [8] was “binds” throughout.
